Assay results: doi:10.1101/032243

Target: Flag-tagged DISC1 MD domain (mouse)
Experiment: co-IP

B1: full-length HA-tagged RASSF7 (protein, UniProt Q9DD19 1-359)
chain: MVLELVAMELKVWVDGIQRVVCGVSEQTTCQEVVIALAQAIGQTGRFVLVQRLREKERQLLPQECPVGAQATCGQFANDVQFVLRRTGPSLSGRPSSDNCPPPERCPVRASLPPKPSAIPGREPRKALTFNLRCPKLVPSPSIPEPAALVGPIPDGFADLQDLELRIQRNTEELGHEAFWEQELQREQAREREGQARLQALSAATAEHAARLEALDAQACALEAELRLAAEAPGPPSATASAAERLRQDLATQERHSLEMQGTLALVSQALEAAEHALQAQAQELEELNRELRQCNLQQFIQQTGAALPPPPPQLDRTIPSTQDLLSPNRGELQGVPQSHILVSSLSPEVPPMRQSSWR
binding: binds

No constants are given. Whether binding was seen depends on the method and setting. Binding seen in cells or lysates may run through a third protein. Binding can be weak; no strength is given. Tags and fused reporters may be left off the sequences shown.
